In the supplement of paper PMC10849652:
Some of the results follow.

The chains behind the UniProt entries cited, without tags or fusion partners. Where a name states a change or a piece, a line headed by the entry shows the natural chain unless it says otherwise.
UniProt P40616: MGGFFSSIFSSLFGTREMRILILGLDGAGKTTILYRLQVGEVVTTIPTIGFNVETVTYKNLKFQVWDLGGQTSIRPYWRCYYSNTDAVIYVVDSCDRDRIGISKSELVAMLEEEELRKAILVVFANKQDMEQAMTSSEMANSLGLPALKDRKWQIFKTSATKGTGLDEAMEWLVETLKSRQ
UniProt Q5T9A4: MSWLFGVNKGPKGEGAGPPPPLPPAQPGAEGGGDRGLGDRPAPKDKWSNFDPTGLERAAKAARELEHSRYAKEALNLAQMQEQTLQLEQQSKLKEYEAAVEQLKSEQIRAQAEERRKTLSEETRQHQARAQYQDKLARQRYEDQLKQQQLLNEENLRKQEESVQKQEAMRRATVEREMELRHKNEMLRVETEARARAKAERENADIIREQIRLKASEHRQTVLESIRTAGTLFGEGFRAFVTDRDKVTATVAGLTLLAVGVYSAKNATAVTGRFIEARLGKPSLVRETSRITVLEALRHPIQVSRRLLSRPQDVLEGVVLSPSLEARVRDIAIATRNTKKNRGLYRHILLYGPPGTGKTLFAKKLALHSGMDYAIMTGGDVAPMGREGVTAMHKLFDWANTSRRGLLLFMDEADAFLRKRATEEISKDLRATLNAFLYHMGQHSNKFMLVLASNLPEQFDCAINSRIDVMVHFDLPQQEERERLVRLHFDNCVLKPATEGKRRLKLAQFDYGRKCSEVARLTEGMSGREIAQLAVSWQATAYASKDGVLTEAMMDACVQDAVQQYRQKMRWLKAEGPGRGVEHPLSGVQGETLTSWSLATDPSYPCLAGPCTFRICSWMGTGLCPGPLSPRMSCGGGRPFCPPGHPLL
UniProt P36405: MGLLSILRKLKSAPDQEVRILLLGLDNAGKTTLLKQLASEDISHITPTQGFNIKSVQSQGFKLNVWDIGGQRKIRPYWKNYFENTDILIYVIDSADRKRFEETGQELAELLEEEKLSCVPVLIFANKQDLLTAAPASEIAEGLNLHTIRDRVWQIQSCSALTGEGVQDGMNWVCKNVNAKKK
UniProt Q9H993: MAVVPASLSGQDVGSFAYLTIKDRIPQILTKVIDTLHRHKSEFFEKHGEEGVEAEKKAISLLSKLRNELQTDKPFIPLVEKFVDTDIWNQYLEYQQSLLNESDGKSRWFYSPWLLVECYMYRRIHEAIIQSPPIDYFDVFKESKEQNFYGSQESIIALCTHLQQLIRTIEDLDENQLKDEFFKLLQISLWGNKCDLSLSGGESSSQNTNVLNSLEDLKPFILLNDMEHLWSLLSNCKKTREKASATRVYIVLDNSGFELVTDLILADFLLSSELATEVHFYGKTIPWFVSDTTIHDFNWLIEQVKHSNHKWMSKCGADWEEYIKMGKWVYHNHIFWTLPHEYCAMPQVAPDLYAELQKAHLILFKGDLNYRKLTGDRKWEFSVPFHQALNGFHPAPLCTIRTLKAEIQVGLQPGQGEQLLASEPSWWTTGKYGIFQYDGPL
UniProt Q8N2F6: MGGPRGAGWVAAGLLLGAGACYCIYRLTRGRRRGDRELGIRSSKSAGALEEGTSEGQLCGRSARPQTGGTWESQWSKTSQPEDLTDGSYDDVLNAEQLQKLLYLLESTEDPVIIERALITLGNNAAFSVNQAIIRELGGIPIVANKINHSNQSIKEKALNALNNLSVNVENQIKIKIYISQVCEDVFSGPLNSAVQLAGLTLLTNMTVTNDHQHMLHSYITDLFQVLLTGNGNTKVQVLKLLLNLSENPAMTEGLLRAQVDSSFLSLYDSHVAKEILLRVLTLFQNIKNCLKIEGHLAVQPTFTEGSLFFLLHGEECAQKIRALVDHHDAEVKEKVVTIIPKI
UniProt Q9Y6H3: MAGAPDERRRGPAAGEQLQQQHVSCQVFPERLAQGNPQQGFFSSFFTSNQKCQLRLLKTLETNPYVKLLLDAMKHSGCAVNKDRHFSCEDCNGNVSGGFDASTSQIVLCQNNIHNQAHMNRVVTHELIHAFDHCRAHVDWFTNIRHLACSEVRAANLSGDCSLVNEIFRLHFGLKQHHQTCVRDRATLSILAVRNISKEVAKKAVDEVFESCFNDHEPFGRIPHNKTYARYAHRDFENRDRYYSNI
UniProt Q16864, whole entry, looked up: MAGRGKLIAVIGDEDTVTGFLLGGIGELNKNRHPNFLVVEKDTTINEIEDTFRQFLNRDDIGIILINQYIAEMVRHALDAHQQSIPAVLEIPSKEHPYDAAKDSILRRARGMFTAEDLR
UniProt Q9NQ11: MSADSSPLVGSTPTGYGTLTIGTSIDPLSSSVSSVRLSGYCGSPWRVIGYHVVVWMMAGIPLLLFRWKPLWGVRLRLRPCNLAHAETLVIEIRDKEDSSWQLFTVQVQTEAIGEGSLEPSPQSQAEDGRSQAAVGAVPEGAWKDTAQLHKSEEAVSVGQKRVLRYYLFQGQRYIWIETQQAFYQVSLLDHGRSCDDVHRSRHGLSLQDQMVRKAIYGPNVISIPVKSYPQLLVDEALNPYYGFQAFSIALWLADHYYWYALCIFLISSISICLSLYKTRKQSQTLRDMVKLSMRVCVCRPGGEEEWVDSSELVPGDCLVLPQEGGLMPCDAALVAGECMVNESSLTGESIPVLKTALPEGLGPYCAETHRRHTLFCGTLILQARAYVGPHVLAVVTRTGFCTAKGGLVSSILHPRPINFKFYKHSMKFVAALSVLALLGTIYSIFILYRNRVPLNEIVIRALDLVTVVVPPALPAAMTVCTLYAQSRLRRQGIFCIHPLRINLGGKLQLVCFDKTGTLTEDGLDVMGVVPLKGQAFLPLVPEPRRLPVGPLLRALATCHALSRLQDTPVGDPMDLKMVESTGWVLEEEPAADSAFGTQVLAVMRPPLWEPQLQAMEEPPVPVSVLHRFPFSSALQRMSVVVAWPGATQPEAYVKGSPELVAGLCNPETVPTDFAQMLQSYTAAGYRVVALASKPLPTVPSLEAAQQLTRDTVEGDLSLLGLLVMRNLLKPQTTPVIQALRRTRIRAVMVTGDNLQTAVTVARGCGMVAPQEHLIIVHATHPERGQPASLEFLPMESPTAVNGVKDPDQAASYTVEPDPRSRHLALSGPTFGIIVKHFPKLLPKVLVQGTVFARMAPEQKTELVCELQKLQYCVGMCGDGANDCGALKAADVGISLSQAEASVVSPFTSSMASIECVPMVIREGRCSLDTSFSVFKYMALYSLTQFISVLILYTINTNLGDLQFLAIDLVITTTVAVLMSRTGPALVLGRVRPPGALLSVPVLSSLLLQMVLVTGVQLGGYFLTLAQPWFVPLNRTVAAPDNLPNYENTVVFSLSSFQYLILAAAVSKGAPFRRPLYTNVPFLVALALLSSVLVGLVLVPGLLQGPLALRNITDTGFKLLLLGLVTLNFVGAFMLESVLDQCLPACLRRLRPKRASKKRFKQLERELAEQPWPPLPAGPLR
UniProt P98196: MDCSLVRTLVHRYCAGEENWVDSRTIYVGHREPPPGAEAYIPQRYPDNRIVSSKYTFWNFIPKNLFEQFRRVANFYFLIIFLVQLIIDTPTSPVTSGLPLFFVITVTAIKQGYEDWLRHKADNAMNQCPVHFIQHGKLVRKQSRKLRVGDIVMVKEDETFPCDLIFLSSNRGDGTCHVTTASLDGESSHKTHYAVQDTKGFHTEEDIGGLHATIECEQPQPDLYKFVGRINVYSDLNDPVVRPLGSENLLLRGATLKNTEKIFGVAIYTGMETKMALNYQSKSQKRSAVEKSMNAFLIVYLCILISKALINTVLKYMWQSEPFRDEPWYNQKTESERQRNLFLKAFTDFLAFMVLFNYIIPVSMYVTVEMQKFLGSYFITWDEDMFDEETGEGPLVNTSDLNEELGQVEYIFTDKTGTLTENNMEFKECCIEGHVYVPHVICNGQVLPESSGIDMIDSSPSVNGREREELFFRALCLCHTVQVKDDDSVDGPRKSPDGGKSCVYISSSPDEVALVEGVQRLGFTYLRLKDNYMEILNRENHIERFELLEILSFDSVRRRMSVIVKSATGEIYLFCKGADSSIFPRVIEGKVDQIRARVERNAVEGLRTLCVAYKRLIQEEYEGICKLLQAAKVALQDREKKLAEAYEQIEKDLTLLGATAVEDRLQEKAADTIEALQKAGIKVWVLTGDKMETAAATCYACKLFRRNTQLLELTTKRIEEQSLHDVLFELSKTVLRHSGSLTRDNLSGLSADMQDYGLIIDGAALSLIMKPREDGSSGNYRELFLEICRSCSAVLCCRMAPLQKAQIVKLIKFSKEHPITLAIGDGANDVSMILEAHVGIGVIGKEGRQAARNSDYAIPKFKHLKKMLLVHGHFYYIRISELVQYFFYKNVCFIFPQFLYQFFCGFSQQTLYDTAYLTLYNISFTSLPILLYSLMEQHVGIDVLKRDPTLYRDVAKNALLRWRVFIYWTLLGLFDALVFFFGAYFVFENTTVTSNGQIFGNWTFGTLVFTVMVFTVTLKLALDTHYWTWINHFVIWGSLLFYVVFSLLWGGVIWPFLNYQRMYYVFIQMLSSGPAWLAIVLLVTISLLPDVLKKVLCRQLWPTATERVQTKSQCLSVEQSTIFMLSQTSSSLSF
UniProt O00244: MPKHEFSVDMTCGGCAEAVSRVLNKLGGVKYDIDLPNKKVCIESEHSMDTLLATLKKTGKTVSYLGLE
UniProt Q9NVI7: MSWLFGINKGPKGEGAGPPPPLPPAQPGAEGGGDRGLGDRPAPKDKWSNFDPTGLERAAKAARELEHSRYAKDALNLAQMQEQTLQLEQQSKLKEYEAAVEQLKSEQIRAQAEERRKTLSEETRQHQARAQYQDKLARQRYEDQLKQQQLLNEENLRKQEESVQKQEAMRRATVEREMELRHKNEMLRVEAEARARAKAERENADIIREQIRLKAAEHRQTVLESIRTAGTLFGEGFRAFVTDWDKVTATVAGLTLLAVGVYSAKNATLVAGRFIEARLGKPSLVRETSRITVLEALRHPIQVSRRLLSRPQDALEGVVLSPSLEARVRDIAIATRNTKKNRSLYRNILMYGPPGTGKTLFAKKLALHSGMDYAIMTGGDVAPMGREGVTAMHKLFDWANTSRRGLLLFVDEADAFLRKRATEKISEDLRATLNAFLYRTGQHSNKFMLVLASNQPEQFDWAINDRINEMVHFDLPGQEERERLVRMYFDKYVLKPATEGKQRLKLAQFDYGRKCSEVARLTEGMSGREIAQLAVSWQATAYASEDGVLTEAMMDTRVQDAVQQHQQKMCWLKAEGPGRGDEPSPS
UniProt P35670: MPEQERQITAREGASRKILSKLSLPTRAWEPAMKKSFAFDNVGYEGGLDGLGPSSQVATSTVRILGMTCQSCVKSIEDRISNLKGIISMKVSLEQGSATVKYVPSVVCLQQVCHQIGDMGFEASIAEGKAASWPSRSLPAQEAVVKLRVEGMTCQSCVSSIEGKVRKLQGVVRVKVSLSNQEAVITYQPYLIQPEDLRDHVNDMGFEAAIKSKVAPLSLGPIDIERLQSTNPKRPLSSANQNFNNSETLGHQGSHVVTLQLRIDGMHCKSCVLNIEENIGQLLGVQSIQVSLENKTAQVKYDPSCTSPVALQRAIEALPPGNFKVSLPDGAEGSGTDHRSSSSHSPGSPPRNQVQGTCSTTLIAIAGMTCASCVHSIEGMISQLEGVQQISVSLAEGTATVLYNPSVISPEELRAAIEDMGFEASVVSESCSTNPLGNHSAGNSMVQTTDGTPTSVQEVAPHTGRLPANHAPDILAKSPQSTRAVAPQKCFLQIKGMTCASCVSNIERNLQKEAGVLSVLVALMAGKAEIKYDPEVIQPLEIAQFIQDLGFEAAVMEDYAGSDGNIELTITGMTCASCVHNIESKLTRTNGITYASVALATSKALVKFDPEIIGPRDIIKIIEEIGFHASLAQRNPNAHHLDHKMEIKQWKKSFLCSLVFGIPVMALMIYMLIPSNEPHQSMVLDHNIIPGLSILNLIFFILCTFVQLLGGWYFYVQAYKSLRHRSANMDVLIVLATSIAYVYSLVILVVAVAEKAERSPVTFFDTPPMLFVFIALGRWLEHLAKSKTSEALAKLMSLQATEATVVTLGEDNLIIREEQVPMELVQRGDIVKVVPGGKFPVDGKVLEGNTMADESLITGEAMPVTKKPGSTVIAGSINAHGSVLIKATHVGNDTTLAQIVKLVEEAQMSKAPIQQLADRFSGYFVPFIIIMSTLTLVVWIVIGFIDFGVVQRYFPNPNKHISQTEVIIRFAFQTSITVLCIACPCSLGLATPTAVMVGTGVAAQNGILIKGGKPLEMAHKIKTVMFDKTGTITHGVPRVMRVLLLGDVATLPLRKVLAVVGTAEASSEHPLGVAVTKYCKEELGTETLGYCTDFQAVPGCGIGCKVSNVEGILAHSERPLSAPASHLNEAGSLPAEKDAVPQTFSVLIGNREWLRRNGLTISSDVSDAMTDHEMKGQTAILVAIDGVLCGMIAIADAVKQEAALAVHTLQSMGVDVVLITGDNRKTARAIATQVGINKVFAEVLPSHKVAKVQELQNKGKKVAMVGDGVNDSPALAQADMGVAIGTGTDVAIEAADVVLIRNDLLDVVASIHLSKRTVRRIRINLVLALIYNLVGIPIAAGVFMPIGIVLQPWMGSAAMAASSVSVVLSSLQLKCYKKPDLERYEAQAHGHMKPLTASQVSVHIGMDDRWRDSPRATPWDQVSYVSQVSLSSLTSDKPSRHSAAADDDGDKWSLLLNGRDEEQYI

Legend:
Test in all cases: log2 fold change, soluble protein after heating vs DMSO (PISA); higher = thermal stabilisation; K562 cells, 10 uM, 30 min; active = over 0.2 and 3.5 SD of the protein, either way, in both replicates (recomputed)
[1] = compound: CC1=C(C=C(C=C1)NC(=O)C2=CC(=CC=C2)C(C)(C)C#N)NC3=CC4=C(C=C3)N=CN(C4=O)C
Procedure, shortened: (§1)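 K562 cells at 2×10^6 cells/mL were given 10 μM compound for 30 min. Aliquots then went through 3 min of heating across 48°C-58°C, were pooled, and were extracted in PBS with 0.5% NP-40 at 4°C, and the supernatant after 21,000xg for 90 min was quantified by TMTpro 16plex LC-MS/MS with channel sums equalised. Thermal stability relative to control samples, from duplicates, is given as log2 fold change.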

[2] = compound: CC1=C(C=C(C=C1)NC(=O)C2=CC(=CC=C2)N(C)C)NC(=O)C3=CC=C(C=C3)O
Procedure, shortened: as §1

[3] = compound: CC1=CC=C(C=C1)SC2=C3C=C(SC3=CN=C2)C(=O)N
Procedure, shortened: as §1

[4] = compound: CC1=NC(=CC=C1)C2=C(N=C(N2)C(C)(C)C)C3=CC4=NC=CN=C4C=C3
Procedure, shortened: as §1

Nexturastat A = compound: CCCCN(Cc1ccc(C(=O)NO)cc1)C(=O)Nc1ccccc1 [Nexturastat A]
Procedure, shortened: as §1

vemurafenib = compound: CCCS(=O)(=O)Nc1ccc(F)c(C(=O)c2c[nH]c3ncc(-c4ccc(Cl)cc4)cc23)c1F [vemurafenib]
Procedure, shortened: as §1

[5] = compound: CCCS(=O)(=O)Nc1ccc(F)c(C(=O)c2c[nH]c3ncc(Cl)cc23)c1F
Procedure, shortened: as §1

[6] = compound: CCCc1cc(C)[nH]c(=O)c1CNC(=O)c1cc(-c2ccnc(N3CCN(C)CC3)c2)cc2c1cnn2C(C)C
Procedure, shortened: as §1

givinostat = compound: CCN(CC)Cc1ccc2cc(COC(=O)Nc3ccc(C(=O)NO)cc3)ccc2c1 [givinostat]
Procedure, shortened: as §1

barasertib = compound: CCN(CCCOc1ccc2c(Nc3cc(CC(=O)Nc4cccc(F)c4)[nH]n3)ncnc2c1)CCOP(=O)(O)O [barasertib]
Procedure, shortened: as §1

[7] = compound: CC[C@@H]1C(=O)N(C)c2cnc(Nc3ccc(C(=O)NC4CCN(C)CC4)cc3OC)nc2N1C1CCCC1
Procedure, shortened: as §1

volasertib = compound: CC[C@@H]1C(=O)N(C)c2cnc(Nc3ccc(C(=O)N[C@H]4CC[C@H](N5CCN(CC6CC6)CC5)CC4)cc3OC)nc2N1C(C)C [volasertib]
Procedure, shortened: as §1

[8] = compound: CC[C@H](C)N1C=C(C2=C(C=C(C=C21)C3=CN=C(C=C3)N4CCNCC4)C(=O)NCC5=C(C=C(NC5=O)C)C)C
Procedure, shortened: as §1

epoxomicin = compound: CC[C@H](C)[C@@H](C(=O)N[C@@H]([C@@H](C)O)C(=O)N[C@@H](CC(C)C)C(=O)[C@]1(CO1)C)NC(=O)[C@H]([C@@H](C)CC)N(C)C(=O)C [epoxomicin]
Procedure, shortened: as §1

[9] = compound: CCn1cc(-c2ccnc3[nH]c(-c4cccc(CN(C)C)c4)cc23)c(-c2ccc(NC(=O)N(C)C)cc2)n1
Procedure, shortened: as §1

[10] = compound: CN(C)CC(=O)Nc1ccc2[nH]c(=O)c3ccccc3c2c1
Procedure, shortened: as §1

[11] = compound: CN1C2=C(C3=C1C(=O)N(N=C3)CC4=CC(=CC=C4)N)SC(=C2)S(=O)C
Procedure, shortened: as §1

[12] = compound: CN1CCC(CNc2ccc3ncc(-c4cccc(OC(F)(F)F)c4)n3n2)CC1
Procedure, shortened: as §1

[13] = compound: CCn1c(C(=O)N(C2CC2)C2CC2)cc2c3c(ncn3C)c(Nc3cc(C)n(C)n3)nc21
Procedure, shortened: as §1

rosiglitazone = compound: CN(CCOC1=CC=C(C=C1)C[C@H]2C(=O)NC(=O)S2)C3=CC=CC=N3 (racemic) [rosiglitazone]
Procedure, shortened: as §1

| Target | log2 fold change [1] | log2 fold change [2] | log2 fold change [3] | log2 fold change [4] | log2 fold change (Nexturastat A) | log2 fold change (vemurafenib) | log2 fold change [5] | log2 fold change [6] | log2 fold change (givinostat) | log2 fold change (barasertib) | log2 fold change [7] | log2 fold change (volasertib) | log2 fold change [8] | log2 fold change (epoxomicin) | log2 fold change [9] | log2 fold change [10] | log2 fold change [11] | log2 fold change [12] | log2 fold change [13] | log2 fold change (rosiglitazone) |
| --- | --- | --- | --- | --- | --- | --- | --- | --- | --- | --- | --- | --- | --- | --- | --- | --- | --- | --- | --- | --- |
| ARPP19 (UniProt P56211) | inactive: -0.012 | inactive: 0.199 | inactive: 0.057 | inactive: 0.125 | inactive: -0.04 | inactive: 0.041 | inactive: 0.043 | inactive: -0.106 | inactive: -0.003 | inactive: -0.012 | inactive: 0.013 | inactive: 0.016 | inactive: -0.01 | inactive: 0.041 | inactive: -0.052 | inactive: 0.032 | inactive: 0.069 | inactive: -0.041 | – | – |
| ARMC8 (UniProt Q8IUR7) | inactive: 0.017 | inactive: 0.039 | inactive: -0.049 | inactive: 0.006 | inactive: -0.002 | inactive: -0.017 | inactive: 0.027 | inactive: 0.065 | inactive: 0 | inactive: -0.025 | inactive: -0.055 | inactive: -0.14 | inactive: 0.053 | inactive: -0.008 | inactive: 0.003 | inactive: -0.007 | inactive: 0.053 | inactive: 0.043 | – | – |
| ATPAF1 (UniProt Q5TC12) | inactive: 0.017 | inactive: 0 | inactive: 0.081 | inactive: -0.032 | inactive: 0.034 | inactive: 0.025 | inactive: 0.089 | inactive: 0.012 | inactive: -0.042 | inactive: 0.014 | inactive: 0.009 | inactive: -0.122 | inactive: 0.002 | inactive: 0.08 | inactive: -0.024 | inactive: -0.005 | inactive: -0.057 | inactive: 0.076 | inactive: 0.039 | inactive: -0.021 |
| ATP9B (UniProt O43861) | inactive: -0.185 | inactive: -0.007 | inactive: -0.054 | inactive: 0.061 | inactive: 0.013 | inactive: -0.05 | inactive: 0.01 | inactive: -0.03 | inactive: 0.085 | inactive: 0.013 | inactive: -0.002 | inactive: -0.15 | inactive: -0.125 | inactive: 0.055 | inactive: -0.023 | inactive: 0.013 | inactive: 0.013 | inactive: -0.109 | – | – |
| ARL1 (UniProt P40616) | inactive: 0.057 | inactive: -0.012 | inactive: 0.162 | inactive: 0.054 | inactive: -0.119 | inactive: 0.037 | inactive: 0.116 | inactive: 0.071 | inactive: 0.07 | inactive: 0.007 | inactive: 0.072 | inactive: -0.113 | inactive: 0.023 | inactive: 0.028 | inactive: -0.05 | inactive: 0.025 | inactive: -0.157 | inactive: 0.059 | – | – |
| ATG9A (UniProt Q7Z3C6) | inactive: -0.019 | inactive: -0.017 | inactive: 0.038 | inactive: 0.008 | inactive: -0.018 | inactive: -0.006 | inactive: 0.019 | inactive: 0.007 | inactive: 0.019 | inactive: 0.045 | inactive: -0.019 | active: -0.326 | inactive: 0.027 | inactive: -0.007 | inactive: -0.06 | inactive: 0.018 | inactive: 0.058 | inactive: -0.118 | – | – |
| ATAD3B (UniProt Q5T9A4) | inactive: -0.07 | inactive: -0.022 | inactive: 0.003 | inactive: -0.009 | inactive: 0.236 | inactive: -0.024 | inactive: 0.042 | inactive: 0.058 | inactive: 0.05 | inactive: -0.019 | inactive: -0.076 | inactive: -0.167 | inactive: 0.093 | inactive: -0.045 | inactive: 0.112 | inactive: -0.026 | inactive: 0.167 | active: -0.339 | – | – |
| ARL3 (UniProt P36405) | inactive: -0.016 | inactive: 0.018 | inactive: 0.016 | inactive: 0.025 | inactive: -0.063 | inactive: 0.002 | inactive: 0.059 | inactive: -0.033 | inactive: 0.005 | inactive: -0.022 | inactive: 0.036 | inactive: 0.046 | inactive: 0.001 | inactive: -0.01 | inactive: -0.005 | inactive: -0.014 | inactive: -0.098 | inactive: -0.018 | – | – |
| ARMT1 (UniProt Q9H993) | inactive: -0.127 | inactive: -0.101 | inactive: 0.055 | inactive: -0.042 | inactive: 0.163 | inactive: 0.084 | inactive: 0.085 | inactive: 0.049 | inactive: 0.173 | inactive: 0.119 | inactive: -0.206 | inactive: -0.411 | inactive: 0.254 | inactive: 0.028 | inactive: -0.078 | inactive: 0.125 | inactive: 0.2 | inactive: -0.281 | inactive: -0.062 | inactive: 0.093 |
| ARMC10 (UniProt Q8N2F6) | inactive: 0.03 | inactive: -0.087 | inactive: -0.019 | inactive: -0.046 | inactive: 0.056 | inactive: 0.12 | inactive: 0.074 | inactive: 0.072 | inactive: 0.063 | inactive: 0.019 | inactive: -0.062 | active: -0.333 | inactive: 0.075 | inactive: 0.022 | inactive: -0.008 | inactive: 0.062 | inactive: 0.002 | inactive: -0.044 | – | – |
| ATP23 (UniProt Q9Y6H3) | inactive: 0.027 | inactive: -0.013 | inactive: 0.122 | inactive: 0.058 | inactive: -0.172 | inactive: 0.021 | inactive: -0.039 | inactive: -0.031 | inactive: -0.012 | inactive: -0.049 | inactive: -0.007 | inactive: 0.004 | inactive: -0.078 | inactive: 0.016 | inactive: 0.055 | inactive: -0.045 | inactive: -0.087 | active: -0.478 | – | – |
| ATP6V1F isoform 2 (UniProt Q16864) | inactive: -0.139 | inactive: 0.034 | inactive: 0.011 | inactive: 0.06 | inactive: 0.146 | inactive: 0.123 | inactive: -0.055 | inactive: 0.038 | inactive: -0.044 | inactive: 0.072 | inactive: 0.01 | inactive: -0.036 | inactive: -0.043 | active: 0.525 | inactive: 0.02 | inactive: 0.165 | inactive: 0.033 | inactive: 0.056 | – | – |
| ATP13A2 (UniProt Q9NQ11) | inactive: 0.017 | inactive: 0.009 | inactive: 0.035 | inactive: 0.055 | inactive: 0.001 | inactive: 0.085 | inactive: -0.037 | inactive: 0.014 | inactive: -0.044 | inactive: -0.052 | inactive: -0.141 | inactive: -0.103 | inactive: -0.074 | inactive: 0.003 | inactive: -0.031 | inactive: -0.002 | inactive: 0.058 | active: -0.509 | – | – |
| ATP11A (UniProt P98196) | inactive: -0.033 | inactive: -0.022 | inactive: -0.039 | inactive: -0.007 | inactive: -0.005 | inactive: 0.032 | inactive: -0.027 | inactive: -0.035 | inactive: -0.007 | inactive: -0.033 | inactive: 0.266 | inactive: 0.058 | inactive: -0.094 | inactive: 0.001 | inactive: -0.022 | inactive: 0.031 | inactive: -0.083 | inactive: 0.084 | – | – |
| ATOX1 (UniProt O00244) | inactive: 0.056 | inactive: -0.065 | inactive: 0.275 | inactive: 0.239 | inactive: -0.037 | inactive: 0.054 | inactive: 0.372 | inactive: 0.28 | inactive: -0.072 | inactive: -0.025 | inactive: 0.009 | inactive: 0 | inactive: -0.015 | inactive: 0.107 | inactive: -0.079 | inactive: 0.056 | inactive: -0.023 | inactive: 0.094 | – | – |
| ATAD3A isoform 2 (UniProt Q9NVI7) | inactive: -0.04 | inactive: 0.005 | inactive: 0.007 | inactive: 0.017 | inactive: 0.207 | inactive: 0.033 | inactive: 0.052 | inactive: 0 | inactive: 0.045 | inactive: 0.009 | inactive: -0.145 | inactive: -0.202 | inactive: 0.038 | inactive: 0.05 | inactive: 0.033 | inactive: 0.018 | inactive: 0.177 | active: -0.319 | – | – |
| ATP7B (UniProt P35670) | inactive: -0.005 | inactive: -0.113 | inactive: 0.028 | inactive: 0.032 | inactive: -0.013 | inactive: -0.001 | inactive: 0.032 | inactive: 0.036 | inactive: -0.005 | inactive: -0.02 | inactive: -0.03 | inactive: -0.043 | inactive: 0.06 | inactive: 0.103 | inactive: -0.031 | inactive: 0.024 | inactive: 0.034 | inactive: 0.009 | – | – |

2 entries from above, as tab-separated lines:
Target	log2 fold change [1]	log2 fold change [2]	log2 fold change [3]	log2 fold change [4]	log2 fold change (Nexturastat A)	log2 fold change (vemurafenib)	log2 fold change [5]	log2 fold change [6]	log2 fold change (givinostat)	log2 fold change (barasertib)	log2 fold change [7]	log2 fold change (volasertib)	log2 fold change [8]	log2 fold change (epoxomicin)	log2 fold change [9]	log2 fold change [10]	log2 fold change [11]	log2 fold change [12]	log2 fold change [13]	log2 fold change (rosiglitazone)
ARMT1 (UniProt Q9H993)	inactive: -0.127	inactive: -0.101	inactive: 0.055	inactive: -0.042	inactive: 0.163	inactive: 0.084	inactive: 0.085	inactive: 0.049	inactive: 0.173	inactive: 0.119	inactive: -0.206	inactive: -0.411	inactive: 0.254	inactive: 0.028	inactive: -0.078	inactive: 0.125	inactive: 0.2	inactive: -0.281	inactive: -0.062	inactive: 0.093
ATAD3A isoform 2 (UniProt Q9NVI7)	inactive: -0.04	inactive: 0.005	inactive: 0.007	inactive: 0.017	inactive: 0.207	inactive: 0.033	inactive: 0.052	inactive: 0	inactive: 0.045	inactive: 0.009	inactive: -0.145	inactive: -0.202	inactive: 0.038	inactive: 0.05	inactive: 0.033	inactive: 0.018	inactive: 0.177	active: -0.319	–	–
